Earlier results as cited in publication PMC12658820, “Development of Tunable Rose Bengal-Based nanoGUMBOS as Potential Selective Chemotherapeutic Agents” (ACS Omega, 2025).

Test system: A549 cells
Design: method as in numbers not shown in text
Details: literature comparison, ref numbers not shown in text; cited from earlier work

## COc1cccc2c1C(=O)c1c(O)c3c(c(O)c1C2=O)C[C@@](O)(C(=O)CO)C[C@@H]3O[C@H]1C[C@H](N)[C@H](O)[C@H](C)O1 [Doxorubicin]
  IC50: 4.4 µM
